Taken from: PubChem BioAssay AID743454 (Peter MacCallum Cancer Centre, 2014)
Assay: 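Search for knock-downs that restore vorinostat killing in resistant colon cancer cells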 (primary screen). Cells: human HCT116-VR colon cancer cells, selected for vorinostat resistance. Reagent: siRNA pool against human genes, 40 nM siRNA pool. Time to read-out: vorinostat for 24 h, read-out about 72 h after transfection. Challenge: vorinostat at 2.5 µM final. Read-out: 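Cell viability by CellTiter-Fluor and caspase 3/7 activity by luminescence, each scaled to mock wells per plate, duplicates averaged, then robust z-scored over all plates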. Direction: viability robust z-score: higher = more viable cells than screen typical; caspase robust z-score: higher = more caspase 3/7 activity than screen typical. Call rule: 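a knock-down is a hit when classed RV1 or RV2 for lowered viability, or CA1 or CA2 for caspase activation; those lethal without drug were dropped; hits were retested singly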.
Shown is one part, drawn at random, of about 18,000 deposited reagents. In the full data, 450 (2.5%) got an active call. 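Single biological run; no consistent viability z cut-off exists, so the class columns, not z-scores, define the calls.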 Unmarked entries are inactive.

no.	Target gene	viability hit class	caspase hit class	viability robust z-score	caspase robust z-score
1	IL2RA (interleukin 2 receptor subunit alpha)	no change	no change	0.9	0.34
2	CNOT6L (CCR4-NOT transcription complex subunit 6 like)	no change	no change	0.32	-0.45
3	AAMP (angio associated migratory cell protein)	no change	no change	-0.76	-0.52
4	MINDY3 (MINDY lysine 48 deubiquitinase 3)	no change	no change	-0.11	-0.43
5	WWP2 (WW domain containing E3 ubiquitin protein ligase 2)	no change	no change	-1.1	0.85
6	PTPN11 (protein tyrosine phosphatase non-receptor type 11)	no change	no change	1.06	0.94
7	TIMCC (TIM double twin CX3C motif chaperone)	no change	no change	-1.42	-0.26
8	SOX15 (SRY-box transcription factor 15)	no change	no change	0.18	1.31
9	BRSK1 (BR serine/threonine kinase 1)	no change	no change	-0.29	0.94
10	SLC41A1	no change	no change	0.91	-0.16
11	KCNJ5 (potassium inwardly rectifying channel subfamily J member 5)	no change	no change	-0.06	0.96
12	ATG12 (autophagy related 12)	no change	no change	-0.02	-1
13	TTC7A (tetratricopeptide repeat domain 7A)	no change	no change	0.29	0.74
14	CBLC (Cbl proto-oncogene C)	no change	no change	1.2	0.54
15	LRPAP1 (LDL receptor related protein associated protein 1)	no change	no change	1.31	-0.24
16	C17orf58 (chromosome 17 open reading frame 58)	no change	no change	-0.08	-0.2
17	UROC1 (urocanate hydratase 1)	no change	no change	-2.54	4.17
18	KRTAP9-4 (keratin associated protein 9-4)	no change	no change	0.26	1.6
19	IFI16 (interferon gamma inducible protein 16)	no change	no change	0.38	1.43
20	TFCP2 (transcription factor CP2)	no change	no change	-0.4	-0.38
21	ECI2 (enoyl-CoA delta isomerase 2)	no change	no change	-0.77	0.3
22	SLC7A1	RV1 (reduced viability) (active)	no change	-3.06	1.27
23	KIF5B (kinesin family member 5B)	no change	no change	0.57	1.28

Limited to “caspase robust z-score” (4 entries from above):
TTC7A (tetratricopeptide repeat domain 7A) = 0.74
CBLC (Cbl proto-oncogene C) = 0.54
LRPAP1 (LDL receptor related protein associated protein 1) = -0.24
C17orf58 (chromosome 17 open reading frame 58) = -0.2

Next reagents:
no.	Target gene	viability hit class	caspase hit class	viability robust z-score	caspase robust z-score
24	SLC22A14	no change	no change	-0.03	-0.81
25	LINC01600 (long independently transcribed non-coding RNA 1600)	no change	no change	-1.36	0.22
26	TPX2 (TPX2 microtubule nucleation factor)	no change	no change	-4.5	1.42
27	GATD1 (glutamine amidotransferase class 1 domain containing 1)	no change	no change	0.24	0.21
28	METRN (meteorin, glial cell differentiation regulator)	no change	no change	0.46	0.6
29	ARFIP2 (ARF interacting protein 2)	no change	no change	-0.45	0.31
30	DYM (dymeclin)	no change	no change	0.86	0.88
31	USP8 (ubiquitin specific peptidase 8)	no change	no change	0.31	-0.18
32	CSMD2 (CUB and Sushi multiple domains 2)	no change	no change	0.3	-0.43
33	KLHDC10 (kelch domain containing 10)	no change	no change	0.16	-0.22
34	RXRG (retinoid X receptor gamma)	no change	no change	0.19	-0.37
35	ISLR (immunoglobulin superfamily containing leucine rich repeat)	no change	no change	-0.73	0.15
36	NLRP3 (NLR family pyrin domain containing 3)	no change	no change	1.21	-0.15
37	HHEX (hematopoietically expressed homeobox)	no change (active)	CA1 (caspase activation)	-1	8.1
38	ZNF497 (zinc finger protein 497)	no change (active)	CA1 (caspase activation)	0.23	5.82
39	HLA-DOB (major histocompatibility complex, class II, DO beta)	no change	no change	-1.54	1.62
